Here are results for one sequence from patent publication US20150218629.

Where a chain is given by its changes, count along the chain named. Construct, isoform or probe ends are uncertain for at least one entry. Protein sequences can lack the tags named with them.

Data set [1] deals with T1, TrwC Cba Q276C 3.4 kDa PEG homodimer (Citromicrobium bathyomarinum).
T1 sequence: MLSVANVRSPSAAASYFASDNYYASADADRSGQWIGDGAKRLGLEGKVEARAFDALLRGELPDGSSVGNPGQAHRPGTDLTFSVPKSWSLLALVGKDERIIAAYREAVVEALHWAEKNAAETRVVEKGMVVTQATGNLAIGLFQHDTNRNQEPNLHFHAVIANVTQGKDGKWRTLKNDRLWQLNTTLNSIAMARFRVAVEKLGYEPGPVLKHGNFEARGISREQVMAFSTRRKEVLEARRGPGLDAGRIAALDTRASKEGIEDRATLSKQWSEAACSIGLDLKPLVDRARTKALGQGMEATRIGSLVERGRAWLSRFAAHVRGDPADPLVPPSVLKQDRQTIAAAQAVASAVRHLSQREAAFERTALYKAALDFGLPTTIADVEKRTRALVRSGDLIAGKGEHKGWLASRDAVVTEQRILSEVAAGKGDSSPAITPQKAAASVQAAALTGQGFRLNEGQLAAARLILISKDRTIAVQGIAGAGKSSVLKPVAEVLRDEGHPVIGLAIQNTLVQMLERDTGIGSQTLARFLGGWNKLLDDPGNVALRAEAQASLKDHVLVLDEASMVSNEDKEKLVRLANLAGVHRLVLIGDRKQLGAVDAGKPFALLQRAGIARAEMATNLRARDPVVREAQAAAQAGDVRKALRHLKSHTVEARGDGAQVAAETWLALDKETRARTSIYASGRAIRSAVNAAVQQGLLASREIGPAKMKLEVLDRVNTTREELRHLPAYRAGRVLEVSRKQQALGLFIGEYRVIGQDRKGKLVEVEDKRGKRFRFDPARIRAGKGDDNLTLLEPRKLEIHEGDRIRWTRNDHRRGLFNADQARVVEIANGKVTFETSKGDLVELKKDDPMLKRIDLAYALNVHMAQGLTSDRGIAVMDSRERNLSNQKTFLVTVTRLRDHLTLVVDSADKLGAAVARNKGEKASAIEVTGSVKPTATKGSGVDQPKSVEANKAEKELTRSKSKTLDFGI
Nature of the data set: activity assay. The note with it: TT plus 28 iSpC3 spacers at 5' end of SEQ 88; four iSpC3 spacers between SEQ 88 and SEQ 104; MspA nanopore; percent long-dwell controlled movements; 625 mM KCl, 10 mM MgCl2, 5 mM dTTP, +120 mV; purified recombinant protein; single-stranded DNA.

The test system of data set [2] is T2, TrwC Cba monomer (Citromicrobium bathyomarinum).
T2 sequence: T1 sequence with C276Q
The experiment in a line: activity assay. To be noted: TT plus 28 iSpC3 spacers at 5' end of SEQ 88; four iSpC3 spacers between SEQ 88 and SEQ 104; MspA nanopore; percent long-dwell controlled movements; 625 mM KCl, 10 mM MgCl2, 5 mM dTTP, +120 mV; purified recombinant protein; single-stranded DNA.

Consider “TTTTTTTTTTTTTTTTTTTTTTTTTTTTTTTTTTTTTTTTTTTTTTGGTTGTTTCTGTTGGTGCTGATATTGCGCCATCAGATTGTGTTTGTTAGTCGCTTTTTTTTTTTGGAATTTTTTTTTTGGAATTTTTTTTTTGACGCTCAGTAATGTGACGATAGCTGAAAACTGTACGATAAACGGTACGCTGAGGGCGGAAAAAATCGTCGGGGACATTGTAAAGGCGGCGAGCGCGGCTTTTCCGCGCCAGCGTGAAAGCAGTGTGGACTGGCCGTCAGGTACCCGTACTGTCACCGTGACCGATGACCATCCTTTTGATCGCCAGATAGTGGTGCTTCCGCTGACGTTTCGCGGAAGTAAGCGTACTGTCAGCGGCAGGACAACGTATTCGATGTGTTATCTGAAAGTACTGATGAACGGTGCGGTGATTTATGATGGCGCGGCGAACGAGGCGGTACAGGTGTTCTCCCGTATTGTTGACATGCCAGCGGGTCGGGGAAACGTGATCCTGACGTTCACGCTTACGTCCACACGGCATTCGGCAGATATTCCGCCGTATACGTTTGCCAGCGATGTGCAGGTTATGGTGATTAAGAAACAGGCGCTGGGCATCAGCGTGGTCTGAGTGTGAAAAAAAAGGTACCAAAAAAAACATCGTCGTGAGTAGTGAACCGTAAGC [iSpC3-spacer DNA strand of Example 9]”, for which the values for the activity on this sequence in data set [1] and in data set [2] were 20% and 5%, respectively.
